Measured values: the supplement of paper PMC8728848
This is one part of the list.

Key:
Assay in all cases: glycan array binding signal (z-score within array); higher = stronger binding
Details in all cases: glycan notation: IUPAC condensed, linker removed
Neu5Ac(a2-8)Neu5Ac = molecular target: Neu5Ac(a2-8)Neu5Ac
Method in brief: (§1)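 Glycan array binding is given as a within-array Z-score, which can be read as non-binding when negative. The arrays, 3228 of them, came from the Consortium for Functional Glycomics database and were retained only where the protein sequence was available. Z-scores were averaged across arrays of the same protein sequence at different concentrations or buffers and across linkers.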

[1] = molecular target: Neu5Ac(a2-8)Neu5Ac(a2-3)Gal(b1-3)GalNAc(b1-4)[Neu5Ac(a2-3)]Gal(b1-4)Glc
Method in brief: as §1

[2] = molecular target: Neu5Ac(a2-8)Neu5Ac(a2-3)Gal(b1-3)GalNAc(b1-4)[Neu5Ac(a2-8)Neu5Ac(a2-3)]Gal(b1-4)Glc
Method in brief: as §1

[3] = molecular target: Neu5Ac(a2-8)Neu5Ac(a2-3)Gal(b1-4)Glc
Method in brief: as §1

[4] = molecular target: Neu5Ac(a2-8)Neu5Ac(a2-3)Gal(b1-4)GlcNAc
Method in brief: as §1

[5] = molecular target: Neu5Ac(a2-8)Neu5Ac(a2-3)[Gal(b1-3)GalNAc(b1-4)]Gal(b1-4)Glc
Method in brief: as §1

[6] = molecular target: Neu5Ac(a2-8)Neu5Ac(a2-3)[GalNAc(b1-4)]Gal(b1-4)Glc
Method in brief: as §1

[7] = molecular target: Neu5Ac(a2-8)Neu5Ac(a2-8)Neu5Ac
Method in brief: as §1

[8] = molecular target: Neu5Ac(a2-8)Neu5Ac(a2-8)Neu5Ac(a2-3)Gal(b1-4)Glc
Method in brief: as §1

[9] = molecular target: Neu5Ac(a2-8)Neu5Ac(a2-8)Neu5Ac(a2-3)[Gal(b1-3)GalNAc(b1-4)]Gal(b1-4)Glc
Method in brief: as §1

[10] = molecular target: Neu5Ac(a2-8)Neu5Ac(a2-8)Neu5Ac(a2-3)[GalNAc(b1-4)]Gal(b1-4)Glc
Method in brief: as §1

[11] = molecular target: Neu5Ac(a2-8)Neu5Ac(a2-8)Neu5Ac(a2-8)Neu5Ac(a2-3)[GalNAc(b1-4)]Gal(b1-4)Glc
Method in brief: as §1

[12] = molecular target: Neu5Ac(a2-8)Neu5Gc(a2-3)Gal(b1-4)GlcNAc
Method in brief: as §1

[13] = molecular target: Neu5Ac(b2-6)Gal(b1-4)GlcNAc
Method in brief: as §1

Neu5Ac(b2-6)GalNAc = molecular target: Neu5Ac(b2-6)GalNAc
Method in brief: as §1

[14] = molecular target: Neu5Ac9Ac(a2-3)Gal(b1-3)GlcNAc
Method in brief: as §1

[15] = molecular target: Neu5Ac9Ac(a2-3)Gal(b1-4)GlcNAc
Method in brief: as §1

[16] = molecular target: Neu5Ac9Ac(a2-6)Gal(b1-4)GlcNAc
Method in brief: as §1

[17] = molecular target: Neu5Gc(a2-3)Gal(b1-3)GlcNAc
Method in brief: as §1

[18] = molecular target: Neu5Gc(a2-3)Gal(b1-3)[Fuc(a1-4)]GlcNAc
Method in brief: as §1

Neu5Gc(a2-3)Gal(b1-4)Glc = molecular target: Neu5Gc(a2-3)Gal(b1-4)Glc
Method in brief: as §1

[19] = molecular target: Neu5Gc(a2-3)Gal(b1-4)GlcNAc
Method in brief: as §1

[20] = molecular target: Neu5Gc(a2-3)Gal(b1-4)GlcNAc(b1-3)Gal(b1-4)GlcNAc(b1-2)Man(a1-3)[Neu5Gc(a2-3)Gal(b1-4)GlcNAc(b1-3)Gal(b1-4)GlcNAc(b1-2)Man(a1-6)]Man(b1-4)GlcNAc(b1-4)GlcNAc
Method in brief: as §1

[21] = molecular target: Neu5Gc(a2-3)Gal(b1-4)[Fuc(a1-3)]GlcNAc
Method in brief: as §1

[22] = molecular target: Neu5Gc(a2-6)Gal(b1-4)GlcNAc
Method in brief: as §1

Neu5Gc(a2-6)GalNAc = molecular target: Neu5Gc(a2-6)GalNAc
Method in brief: as §1

[23] = molecular target: Neu5Gc(a2-8)Neu5Ac(a2-3)Gal(b1-4)GlcNAc
Method in brief: as §1

[24] = molecular target: Neu5Gc(a2-8)Neu5Gc(a2-3)Gal(b1-4)GlcNAc
Method in brief: as §1

[25] = molecular target: Neu5Gc(a2-8)Neu5Gc(a2-3)Gal(b1-4)GlcNAc(b1-3)Gal(b1-4)GlcNAc
Method in brief: as §1

[26] = molecular target: Neu5Gc(a2-8)Neu5Gc(a2-6)Gal(b1-4)GlcNAc
Method in brief: as §1

[27] = molecular target: Neu5Gc(b2-6)Gal(b1-4)GlcNAc
Method in brief: as §1

B1: Mermaid1 (Stilbonema majum) (protein)
chain: MGSSHHHHHHSSGLVPRGSHMAASGWLRSPQGTVVKLYRRSLSWSKADEFCKDVDGRLVVDRTADMHLFLIKNVLKEKKSRVWVGLRRTAPHSRTWIWSDGTRQNEDDLDANLWLRDEPNDAAGEEECALFMYSPWEKAWGLNDYLCRGGCRSYQFICEKWIR
glycan array binding signal (z-score) (Neu5Ac(a2-8)Neu5Ac): -0.351 | glycan array binding signal (z-score) [1]: -0.537 | glycan array binding signal (z-score) [2]: -0.366 | glycan array binding signal (z-score) [3]: -0.08 | glycan array binding signal (z-score) [4]: -0.021 | glycan array binding signal (z-score) [5]: -0.148 | glycan array binding signal (z-score) [6]: -0.375 | glycan array binding signal (z-score) [7]: -0.521 | glycan array binding signal (z-score) [8]: 1.44 | glycan array binding signal (z-score) [9]: -1 | glycan array binding signal (z-score) [10]: -0.78 | glycan array binding signal (z-score) [11]: -0.071 | glycan array binding signal (z-score) [12]: -0.791 | glycan array binding signal (z-score) [13]: -0.105 | glycan array binding signal (z-score) (Neu5Ac(b2-6)GalNAc): -0.711 | glycan array binding signal (z-score) [14]: -0.826 | glycan array binding signal (z-score) [15]: 0.536 | glycan array binding signal (z-score) [16]: 0.56 | glycan array binding signal (z-score) [17]: -0.396 | glycan array binding signal (z-score) [18]: 0.346 | glycan array binding signal (z-score) (Neu5Gc(a2-3)Gal(b1-4)Glc): 0.154 | glycan array binding signal (z-score) [19]: -0.417 | glycan array binding signal (z-score) [20]: -0.959 | glycan array binding signal (z-score) [21]: 2.14 | glycan array binding signal (z-score) [22]: -0.041 | glycan array binding signal (z-score) (Neu5Gc(a2-6)GalNAc): -0.724 | glycan array binding signal (z-score) [23]: -0.824 | glycan array binding signal (z-score) [24]: -0.511 | glycan array binding signal (z-score) [25]: -0.614 | glycan array binding signal (z-score) [26]: 0.03 | glycan array binding signal (z-score) [27]: 0.506
